Laboratory results taken from PubChem BioAssay AID1671190 (National Center for Advancing Translational Sciences (NCATS), 2021).
The whole screen tested about 580,000 compounds, of which about 6,100 (1.1%) were called active. This list was built around the results that the source calls inconclusive (neither active nor inactive); the mix of calls is not that of the screen. Calls follow the shape of the dose curve; as a rule, active = well fitted inhibition curve with a large enough effect; inconclusive = small, poorly fitted or top-dose-only effect, or another doubt; inactive = no such curve, though single readings can be large or run the other way. Potencies beside an inconclusive call are fits to weak or partial responses and may not hold up.

Sequences of proteins named here, by UniProt entry; tags and fusion partners are left off. A change or cut given only in a name is not applied to a line headed by its entry.
UniProt P18054: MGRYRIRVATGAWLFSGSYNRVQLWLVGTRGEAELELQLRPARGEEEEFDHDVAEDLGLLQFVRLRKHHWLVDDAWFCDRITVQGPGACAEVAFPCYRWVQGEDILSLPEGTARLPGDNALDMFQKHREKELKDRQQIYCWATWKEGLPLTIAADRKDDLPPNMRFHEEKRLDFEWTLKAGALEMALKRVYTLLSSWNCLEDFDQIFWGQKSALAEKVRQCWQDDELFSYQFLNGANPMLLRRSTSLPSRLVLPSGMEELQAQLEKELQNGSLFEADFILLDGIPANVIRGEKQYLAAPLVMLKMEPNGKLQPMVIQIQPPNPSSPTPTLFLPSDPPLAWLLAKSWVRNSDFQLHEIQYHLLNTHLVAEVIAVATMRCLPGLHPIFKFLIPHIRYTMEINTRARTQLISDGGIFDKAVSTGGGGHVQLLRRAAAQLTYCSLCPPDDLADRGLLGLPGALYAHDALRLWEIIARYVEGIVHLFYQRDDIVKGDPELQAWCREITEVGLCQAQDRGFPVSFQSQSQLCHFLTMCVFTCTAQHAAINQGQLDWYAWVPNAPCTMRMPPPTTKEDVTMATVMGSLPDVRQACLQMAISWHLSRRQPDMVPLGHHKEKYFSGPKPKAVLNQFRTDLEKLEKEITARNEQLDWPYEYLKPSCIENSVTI

biological target: Polyunsaturated fatty acid lipoxygenase ALOX12 (Homo sapiens) (UniProt P18054); test: Primary qHTS assay for inhibitors of human arachidonate 12S-lipoxygenase (ALOX12): Round 2; settings: purified 12hLO, xylenol orange hydroperoxide absorbance; series mostly up to 108 µM
Method in brief: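 Hydroperoxide product was detected by ferrous iron/xylenol orange as the 573 to 405 nm absorbance ratio. Arachidonic acid at 40 uM (final) was turned over for 30 min at room temperature by 150 nM human 12hLO, pH 7.0 Hepes buffer, after 15 min compound preincubation.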
Potency is read from the fitted curve at half-maximal effect.

Compound | Potency
COc1ccccc1-c1cnc2c(c1)C(=O)N([C@@H](C)CO)C[C@@H](C)[C@H](CN(C)C(=O)c1cccnc1)O2 | inconclusive: 39.8 µM [inhibitor, partial curve]
CCOC(=O)c1noc2nc(C)n(CC(=O)Nc3cc(OC)ccc3OC)c(=O)c12 | inconclusive: 39.8 µM [inhibitor, single point]
CC(C)C[C@@H](CN1CCC[C@H]1CN1C(=O)C(=O)NC[C@@H]1Cc1ccc(O)cc1)N1C[C@H](Cc2ccc(O)cc2)N(CCc2ccccc2)C(=O)C1=O | inconclusive: 79.4 µM [inhibitor, single point]
O=C(NCc1ccc(F)cc1)C(=O)NCC1CCCN1S(=O)(=O)c1ccccc1 (stereo not given) | inconclusive: 35.5 µM [inhibitor, partial curve, poor fit]
O=C(CC1OC(=O)c2ccccc21)Nc1ccccc1N1CCOCC1 (stereo not given) | inactive
CCC1NC(=S)N(C2CCCCC2)C1=O (stereo not given) | inactive
CN(CC1Cc2ccccc2O1)C(=O)c1cn(Cc2ccccc2F)nn1 (stereo not given) | inconclusive: 100 µM [inhibitor, single point]
COc1cc(/C=C2/C(=O)NN(c3ccc(Cl)c(Cl)c3)C2=O)cc([N+](=O)[O-])c1O | active: 35.5 µM
Cc1cccc(S(=O)(=O)N(C)CC2CCOC2)c1 (stereo not given) | inactive
Cc1ncc(-c2ccc(S(=O)(=O)Nc3ccc(Br)cc3F)cc2)o1 | inconclusive: 56.2 µM [inhibitor, partial curve, poor fit]
Cc1nc(C)c(C(=O)C2=C(O)C(=O)N(CCCN(C)C)C2c2ccco2)s1 (stereo not given) | inconclusive: 35.5 µM [inhibitor, partial curve, poor fit]
CCC(C)Sc1oc(-c2ccco2)nc1S(=O)(=O)c1ccc(Cl)cc1 (stereo not given) | inconclusive: 56.2 µM [inhibitor, partial curve, poor fit]
Cc1ccc(NC(=S)C2=C(O)c3sccc3N(C)S2(=O)=O)cc1 | inconclusive: 31.6 µM [inhibitor, partial curve, poor fit]
Cc1ccc(NC(=O)Cn2nnc(C(=O)NCCc3ccccc3)c2N)cc1 | inconclusive: 56.2 µM [inhibitor, partial curve, poor fit]
O=C(COC(=O)COc1ccccc1Cl)Nc1ccccc1OC(F)F | inconclusive: 126 µM [inhibitor, single point]
O=C(NCc1ccc(Cl)cc1)c1ccc2c(c1)NC(=O)C(CS(=O)(=O)Cc1ccc(F)cc1Cl)N2 (stereo not given) | inconclusive: 39.8 µM [inhibitor, partial curve, poor fit]
N#Cc1c(N2CCOCC2)nc(-c2ccco2)c2c1CCCC2 | inconclusive: 17.8 µM [inhibitor, partial curve]
O=C(COC(=O)c1ccc(Br)o1)Nc1nc2ccccc2s1 | inconclusive: 112 µM [inhibitor, single point]
O=C(O)C(Oc1ccc2cc(-c3ccc(Cl)cc3)c(=O)oc2c1)c1ccccc1 (stereo not given) | inconclusive: 50.1 µM [inhibitor, partial curve, poor fit]
COc1ccccc1-n1cnnc1SCc1csc(-c2ccccc2)n1 | inactive
O=c1c(-n2cncn2)c[nH]n1-c1cccc(Cl)n1 | inconclusive: 22.4 µM [inhibitor, full curve, poor fit]
Cc1ccccc1C(=O)N1CCN(c2ncnc3c2cnn3-c2ccccc2)CC1 | inactive

Compounds listed so far containing bromine:
Compound | Potency
Cc1ncc(-c2ccc(S(=O)(=O)Nc3ccc(Br)cc3F)cc2)o1 | inconclusive: 56.2 µM [inhibitor, partial curve, poor fit]
O=C(COC(=O)c1ccc(Br)o1)Nc1nc2ccccc2s1 | inconclusive: 112 µM [inhibitor, single point]

Following part

Compound | Potency
FC(F)(F)c1cccc(NC(=S)Nc2cccc(Cl)c2)c1 | inconclusive: 50.1 µM [inhibitor, partial curve, poor fit]
O=C(Cn1c(=O)c2c(n1Cc1ccccc1)CN(Cc1ccccc1)CC2)NCc1ccc2c(c1)OCO2 | inconclusive: 28.2 µM [inhibitor, full curve, poor fit]
Cc1ccc(C(=O)CSc2ncnc3ccccc23)o1 | inactive
CC(C)c1cccc(C(C)C)c1NC(=O)CCn1cnc2c1c(=O)n(C)c(=O)n2C | inactive
Cc1ccc(C)c(NC(=O)C(C)SCCO)c1 (stereo not given) | inconclusive: 50.1 µM [inhibitor, partial curve, poor fit]
Cc1cccc(NC(=O)N2CC(Oc3ccccc3-c3nc(-c4ccccc4)no3)C2)c1 | inconclusive: 50.1 µM [inhibitor, partial curve]
Cc1[nH]ccc2cc3nc4ccccc4c3cc12 | inconclusive: 158 µM [inhibitor, single point]
O=C(CCCCCn1c(=O)[nH]c2ccccc2c1=O)NC1CCCC1 | inconclusive: 39.8 µM [inhibitor, partial curve, poor fit]
CCN1C(=O)C(CC(=O)Nc2c(C)cccc2C)SC1=Nc1ccc(S(N)(=O)=O)cc1 (stereo not given) | inconclusive: 89.1 µM [inhibitor, single point]
Cc1c(C)n(Cc2ccncc2)c2ncn3nc(Cc4ccccc4)nc3c12 | inactive
COC(=O)c1c(C)[nH]c(-c2ccc(OC)cc2F)c1C1C(=O)Nc2ccccc21 (stereo not given) | inconclusive: 56.2 µM [inhibitor, single point]
O=C(O)C1C2C=CC(C2)C1C(=O)Nc1cccc(F)c1 (stereo not given) | inconclusive: 112 µM [inhibitor, single point]
CCN(CC(=O)N1CCOCC1)S(=O)(=O)c1ccc(F)cc1 | inconclusive: 2.82 µM [inhibitor, full curve, poor fit]
Cc1cccc(Nc2nc(-c3ccc4c(c3)CCN4S(C)(=O)=O)cs2)c1 | active: 35.5 µM
O=C(NNS(=O)(=O)c1ccccc1[N+](=O)[O-])c1cccnc1 | inactive
NC(c1csc(Nc2ccc(C(=O)c3ccccc3)cc2)n1)C1CCCCC1 (stereo not given) | inconclusive: 126 µM [inhibitor, single point]
COCCNC(=S)N/N=C(\C)c1ccc(Cl)s1 | inconclusive: 31.6 µM [inhibitor, partial curve, poor fit]
CNC(=O)[C@H]1C[C@H](Oc2cccnc2)CN1S(=O)(=O)c1ccccc1 | inactive
CN1C[C@@H]2C(c3ccc(C(F)(F)F)cc3)C3(c4cccnc4)CC2(C3)[C@H]1c1ccccc1 (stereo not given in full) | inconclusive: 50.1 µM [inhibitor, partial curve, poor fit]
CC(=O)Nc1cc(NC(C)=O)cc(C(=O)OCC(=O)c2ccc3c(c2)OCO3)c1 | inactive
OCCN1CCN(c2cc(-c3ccccc3)c3ccccc3n2)CC1 | inconclusive: 0.631 µM [inhibitor, full curve, poor fit]
CSCc1ccc(C(=O)NCc2coc(-c3cccs3)n2)cc1 | inconclusive: 112 µM [inhibitor, partial curve, poor fit]

Compound | Potency
CCc1ccc(/C=C2/SC(N3CCOCC3)=NC2=O)cc1 | inconclusive: 44.7 µM [inhibitor, partial curve, poor fit]
Cc1csc(Nc2cccc3ccccc23)n1 | inactive
CCC(=O)N1CCC2(CC1)Oc1ccc(Cl)cc1C(=O)C21CC(c2ccccc2)=NO1 (stereo not given) | inconclusive: 44.7 µM [inhibitor, partial curve, poor fit]
O=C(N[C@@H](Cc1ccccc1)C(=O)N1CCN(S(=O)(=O)c2ccccc2F)CC1)c1ccco1 | inactive
CC(=O)c1c(O)cc(=O)n(-c2ccccc2)c1-c1ccc(C)cc1 | inactive
Cc1nc(N/N=C/c2ccccn2)sc1C | inactive
COC(=O)c1cc2sccc2n1CC(=O)Nc1ccc(C)cc1C | inconclusive: 50.1 µM [inhibitor, partial curve, poor fit]
N#Cc1c(C(F)(F)F)cc(-c2ccccc2)nc1SC/C=C/c1ccccc1 | inconclusive: 1.78 µM [inhibitor, full curve, poor fit]
CCOC(=O)C1=C(C)NC(=O)NC1c1c(C)nn(-c2ccccc2)c1Cl (stereo not given) | inconclusive: 50.1 µM [inhibitor, single point]
Cc1cc[n+](-c2[nH]c(=O)sc2/C=N/N=C(\[O-])c2ccccc2)cc1 | inactive
Oc1ccc(-c2nc(-c3ccc(F)cc3)cs2)cc1 | inactive
COc1ccccc1/C=C/C=C1N=C(/C=C/c2ccc(Cl)cc2)OC/1=O | inconclusive: 3.55 µM [inhibitor, full curve, poor fit]
Cc1ccc2c(c1)[C@H]1[C@H](CO2)[C@H](c2ccccc2)[C@]2(C)C(=O)N(C)CC(=O)N12 | inconclusive: 112 µM [inhibitor, single point]
N#Cc1nc(-c2ccccc2Cl)oc1NCc1ccco1 | inconclusive: 89.1 µM [inhibitor, single point]
COc1ccccc1CNc1nc(NCc2ccc3occc3c2)c2sccc2n1 | inconclusive: 25.1 µM [inhibitor, partial curve, poor fit]
COC(=O)c1ccc(CS(=O)(=O)c2ccc(C)cc2)o1 | inconclusive: 79.4 µM [inhibitor, partial curve, poor fit]
COc1ccc(S(=O)(=O)N2CCN(CC(=O)N3CCc4ccccc4C3)CC2)cc1OC | inconclusive: 44.7 µM [inhibitor, partial curve, poor fit]
COCCCN(C(=O)CSCc1ccc(C)cc1)c1c(N)n(Cc2ccccc2)c(=O)[nH]c1=O | inconclusive: 35.5 µM [inhibitor, partial curve]
CC(C)n1nc(C(=O)Nc2cccc(S(=O)(=O)NC3=NCCC3)c2)c2ccccc2c1=O | inactive
CCOC(=O)C1=NNC(C(=O)c2ccc(Cl)cc2)C1c1ccc(OC)cc1 (stereo not given) | inconclusive: 39.8 µM [inhibitor, partial curve, poor fit]
N#Cc1c(-c2ccco2)cc(-c2ccc(F)cc2)nc1N | active: 5.62 µM

3 entries already listed, ordered by length of the SMILES, descending:
Compound | Potency
Cc1ccc2c(c1)[C@H]1[C@H](CO2)[C@H](c2ccccc2)[C@]2(C)C(=O)N(C)CC(=O)N12 | inconclusive: 112 µM [inhibitor, single point]
O=C(N[C@@H](Cc1ccccc1)C(=O)N1CCN(S(=O)(=O)c2ccccc2F)CC1)c1ccco1 | inactive
N#Cc1c(C(F)(F)F)cc(-c2ccccc2)nc1SC/C=C/c1ccccc1 | inconclusive: 1.78 µM [inhibitor, full curve, poor fit]
